Data as given in PubChem BioAssay AID743121 (NCATS, 2013).

- Purpose: 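Genes whose silencing strengthens cell killing by camptothecin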 (primary screen)
- Cell system: MDA-MB-231 cells, a human breast cancer line
- Reagent: single siRNA against human genes, 20 nM siRNA (0.8 pmol per well)
- Duration: 120 h (drug added 48 h after transfection, read 72 h later)
- Conditions: camptothecin 20 nM (about EC30) for 72 h; vehicle 0.1% DMSO in parallel plates
- Read-out: 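CellTiter-Glo ATP signal, scaled to control siRNA as percent viability; sensitisation given as log2 of untreated divided by camptothecin-treated viability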
- Direction: log2 vehicle/camptothecin viability: higher = stronger sensitisation to camptothecin; viability with camptothecin and viability without drug: higher = more viable cells
- Hit rule: 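Each gene scored by redundant siRNA activity (RSA) over its individual siRNA ratios; a gene is called active at p < 0.001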
This is a random part of about 26,000 reagents. Over the whole deposit, 167 (0.63%) were called active. 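Calls are per gene from RSA p-values that are not deposited; an individual active-marked siRNA can sensitise only weakly.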 A number with no mark means an inactive call. Reagents against one gene are numbered here. Reagent sequences are not shown.

no.	target	reagent	log2 vehicle/camptothecin viability	viability with camptothecin (% of control)	viability without drug (% of control)
1	CDCP2	1	0.166	67.1	75.3
2	CDCP2	2	0.198	68.7	78.8
3	CDCP2	3	-0.0723	101	96.1
4	BRF2	1	0.154	82	91.3
5	BRF2	2	-0.725	74.5	45.1
6	BRF2	3	-0.0164	79.8	78.9
7	BRF2	4	-0.143	110	100
8	SGPL1	1	0.27	98.9	119
9	SGPL1	2	-0.00301	84.9	84.7
10	SGPL1	3	-0.393	82.8	63.1
11	SCYL2	1	0.275	81.9	99.2
12	SCYL2	2	0.308	57.3	70.9
13	SCYL2	3	-0.056	90.7	87.3
14	SCYL2	4	-0.378	75.8	58.3
15	SCYL2	5	-0.521	103	71.9
16	LUZP4	1	-0.234	101	85.9
17	LUZP4	2	-0.135	86	78.3
18	LUZP4	3	0.0854	72.7	77.1
19	P2RX3	1	-0.111	111	103
20	P2RX3	2	0.0497	98.7	102
21	P2RX3	3	-0.0166	43	42.6
22	DOLPP1	1	-0.206	96.7	83.9
23	DOLPP1	2	-0.213	34.5	29.8
24	DOLPP1	3	-0.227	88.5	75.6
25	DOLPP1	4	0.204	28.2	32.5
26	MASTL	1	-0.654	76.9	48.8
27	MASTL	2	-0.0816	88.7	83.8
28	MASTL	3	-0.236	101	85.9
29	MASTL	4	-0.465	129	93.2
30	NR1I2	1	0.35	77.1	98.3
31	NR1I2	2	0.325	87.8	110
32	NR1I2	3	-0.652	102	65.1
33	NR1I2	4	-0.0583	71	68.2
34	DLL4	1	0.353	47.9	61.1
35	DLL4	2	-0.206	60.1	52.1
36	DLL4	3	-0.384	88.8	68
37	DLL4	4	-0.025	96.8	95.1
38	NPHP1	1	-0.412	74.5	56
39	NPHP1	2	-0.0378	102	98.9
40	NPHP1	3	-0.236	105	88.9
41	NPHP1	4	-0.171	80.7	71.7
42	BARD1	1	-0.0725	68	64.7
43	BARD1	2	-0.108	72.9	67.6
44	BARD1	3	0.842	50.9	91.3
45	COMT	1	-0.148	104	93.7
46	COMT	2	-0.555	37.6	25.6
47	COMT	3	0.00225	113	113
48	RAD23A	1	-0.262	55.4	46.2
49	RAD23A	2	0.164	44	49.3
50	RAD23A	3	-0.138	78.5	71.4
51	AGO1	1	-0.459	70.3	51.1
52	AGO1	2	-0.148	103	93.1
53	AGO1	3	0.559	29.8	43.9
54	AGO1	4	-0.0532	90.6	87.3
55	RBP4	1	-0.538	57.4	39.5
56	RBP4	2	-0.00678	51	50.7
57	RBP4	3	0.334	33.7	42.5
58	RBP4	4	-0.492	48.7	34.6
59	MECP2	1	-0.151	56.8	51.1
60	MECP2	2	-0.593	105	69.9
61	MECP2	3	-0.122	108	99.7
62	MECP2	4	-0.278	88.7	73.2
63	EBI3	1	-0.324	61.6	49.2
64	EBI3	2	-0.644	36.8	23.6
65	EBI3	3	-0.31	63.6	51.3
66	CD2	1	-0.102	105	97.5
67	CD2	2	-0.483	95.5	68.3
68	CD2	3	-0.359	137	107
69	CD2	4	-0.485	58.5	41.8
